Results are given in words; binding and its absence hold for the method and conditions named. In cells and extracts the contact can be indirect. Some entries that bind do so weakly or less than the wild type.
B1: Ufm1-specific ligase 1 (enzyme, UniProt Q8CCJ3 1-793)
chain: MADAWEEIRRLAADFQRAQFAESTQRLSERNCIEIVNKLISQKQLEVVHTLDGKEYITPAQISKEMRDELHVRGGRVNIVDLQQVINVDLTHIESRVSDIIKSEKHVQMVLGQLIDENYLDQLSEEVNDKLQESGQVTVSELCKAYDLPGDFLTQALTQRLGRIINGHLDLDNRGVIFTEAFVARHKARIRGLFSAITRPTPVNSLVSKYGFQEQLLYSVLEDLVSTGRLRGTVVGGRQDKAVFVPDIYSRTQSTWVDSFFRQNGYLEFDALSRLGIPDAVNYIKKRYKNTQLLFLKATCVGQGLVDQVEASVEEAISSGTWVDISPLLPSSLSVEDAAMLLQQVMRPFGKLASAIVFSDTVVVSEKFITDCTGLFSERMHQKAEKEMKNNPVHLITEEDLKQISILESVNTSKKDKKDERRKKATEGSGSVRGGGGGNAREYKIKKTKKKGRKDEDSDDESQSSHGGKKKPDITFMFQDEIEDCLRKHIQDAPEEFISELAEYLIKPLNKMYLEVVRSVFMSSTSASGTGRKRTIKDLQEEVSNLYNNIRLFEKGMKYFADDTQTALTKHLLKTVCTDITNLMFNFLASDFLMAVEEPAAITSDIRKKILSKLTEETKVALTKLHNSLNEKSIEDFLSCLDSATEACDIMVKKGDKKRERQILFQHRQALCEQLKVTEDPALILHLTAVLLFQLSTHSMLHAPGRCVPQIIAFLHSKIPEDQHTLLVKYQGLVVKQLVSQNKKTGQGEDPSSDELDKEQHDVTNATRKELQELSLSIKDLVLKSRKSSVTEE
B2: Ufm1-binding protein 1 (protein, UniProt Q80WW9 1-315)
chain: MVGPWVYLVAAVLLIGLILFLTRSRGRAAAADGEPLHNEEERAGAGQVGRSLPQESEEQRTGSRPRRRRDLGSRLQAQRRAQRVAWEDGDENVGQTVIPAQEEEGIEKPAEVHPTGKIGAKKLRKLEEKQARKAQREAEEAEREERKRLESQREAEWKKEEERLRLKEEQKEEEERKAQEEQARREHEEYLKLKEAFVVEEEGVSETMTEEQSHSFLTEFINYIKKSKVVLLEDLAFQMGLRTQDAINRIQDLLTEGTLTGVIDDRGKFIYITPEELAAVANFIRQRGRVSITELAQASNSLISWGQDLPAQASA

Protein sequences, listed by entry. Tags and fused reporters are not part of them.
UniProt Q9DCJ1: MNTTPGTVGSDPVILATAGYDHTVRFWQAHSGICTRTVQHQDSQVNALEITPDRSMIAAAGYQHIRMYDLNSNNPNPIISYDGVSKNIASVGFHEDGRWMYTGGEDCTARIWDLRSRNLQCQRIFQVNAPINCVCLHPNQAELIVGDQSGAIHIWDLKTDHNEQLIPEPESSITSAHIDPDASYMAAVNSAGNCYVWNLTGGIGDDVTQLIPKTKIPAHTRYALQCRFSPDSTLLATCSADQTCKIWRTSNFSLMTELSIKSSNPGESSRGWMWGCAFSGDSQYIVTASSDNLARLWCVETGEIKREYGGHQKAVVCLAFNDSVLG

Molecular target: GβL (mouse (endogenous in mouse liver)) (UniProt Q9DCJ1)
Assay: co-IP; lysate of fresh liver tissue of 2-month-old wild-type mice (1500 ug total protein, Pierce IP Lysis Buffer with protease inhibitors); antibodies against Ufl1, Ufbp1 or GβL, protein A/G plus agarose beads overnight at 4 °C; six washes in lysis buffer; western blot; IgG as negative control

binding	Binder
binds	B1
binds	B2

From article PMC10155312
